Record: PubChem BioAssay AID1259254 (NCATS, 2017)

Purpose: 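Finding genes that stop cells copying their DNA twice in one cycle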 (primary screen)
Cells: human HCT116 colorectal cancer cells
Knock-down reagent: single siRNA against human genes
Time to read-out: 3 days
Measurement: 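Imaged Hoechst DNA stain sorts each cell into a cycle phase by DNA amount; per plate, G2 fraction set to 0% for non-targeting and 100% for GMNN siRNA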
Reading the numbers: G2 robust z-score: higher = more G2 cells, more excess DNA replication
Active means: 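Active siRNAs have a G2 robust z of 5 or more median absolute deviations over the median, which in these data means about 38% or higher of GMNN control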
Shown is one part, drawn at random, of about 59,000 reagents tested. About 1,550 of them (2.6%) were called active. 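G2 share is only a proxy for re-replication; each gene was hit by three separate siRNAs, and active genes were retested.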 The numbers tell different reagents against one gene apart. Not all columns of the deposit are shown. The record does not give: the amount of reagent.

G2 robust z-score, by gene and reagent
SLC7A14: #1 -0.23 inactive; #2 1.26 inactive; #3 -0.449 inactive; #4 -1.25 inactive; #5 0.323 inactive; #6 -0.189 inactive
NRDC (nardilysin convertase): #1 -0.419 inactive; #2 0.145 inactive; #3 -0.732 inactive
OPLAH (5-oxoprolinase, ATP-hydrolysing): #1 0.819 inactive; #2 -0.756 inactive; #3 0.874 inactive
FSAF1 (40S small subunit processome assembly factor 1): #1 2.03 inactive; #2 -0.435 inactive; #3 0.252 inactive
TADA2A (transcriptional adaptor 2A): #1 -0.826 inactive; #2 0.699 inactive; #3 -1.17 inactive
GSPT2 (G1 to S phase transition 2): #1 -1.16 inactive; #2 0.196 inactive; #3 2.19 inactive
LOC283788 (FSHD region gene 1 pseudogene): #1 -0.912 inactive; #2 -0.477 inactive; #3 -0.467 inactive
DNAJC25 (DnaJ heat shock protein family (Hsp40) member C25): #1 0.0456 inactive; #2 -0.0184 inactive; #3 1.92 inactive
MPG (N-methylpurine DNA glycosylase): #1 -0.936 inactive; #2 0.193 inactive; #3 3.26 inactive
AGVR6190 (retired record): #1 2.28 inactive; #2 1.86 inactive; #3 -0.512 inactive
LOC729040 (retired record): #1 0.393 inactive; #2 -0.628 inactive; #3 0.406 inactive
KCNK3 (potassium two pore domain channel subfamily K member 3): #1 -1.21 inactive; #2 0.251 inactive; #3 0.0782 inactive
OR11A1 (olfactory receptor family 11 subfamily A member 1): #1 1.76 inactive; #2 2.55 inactive; #3 1.64 inactive
MAPK1 (mitogen-activated protein kinase 1): #1 -1.74 inactive; #2 0.188 inactive; #3 -0.585 inactive
STK10 (serine/threonine kinase 10): #1 -0.0113 inactive; #2 -1.56 inactive; #3 -0.738 inactive
KCTD17 (potassium channel tetramerization domain containing 17): #1 0.026 inactive; #2 0.0941 inactive; #3 -0.169 inactive
BCAS4 (breast carcinoma amplified sequence 4): #1 1.37 inactive; #2 0.774 inactive; #3 1.83 inactive
SLC36A3: #1 1.05 inactive; #2 0.969 inactive; #3 0.765 inactive
ENDOD1 (endonuclease domain containing 1): #1 0.485 inactive; #2 -1.42 inactive; #3 -0.0969 inactive
CACNA2D4: #1 0.193 inactive; #2 1.05 inactive; #3 -0.615 inactive
LRP2BP (LRP2 binding protein): #1 -1.35 inactive; #2 0.33 inactive; #3 0.0667 inactive
BMP8B (bone morphogenetic protein 8b): #1 -0.134 inactive; #2 -0.628 inactive; #3 -0.545 inactive

In a second layout: results already given
{"gene":"KCNK3 (potassium two pore domain channel subfamily K member 3)","reagent":1,"G2 robust z-score":-1.21,"Call":"inactive"}
{"gene":"KCNK3 (potassium two pore domain channel subfamily K member 3)","reagent":2,"G2 robust z-score":0.251,"Call":"inactive"}
{"gene":"KCNK3 (potassium two pore domain channel subfamily K member 3)","reagent":3,"G2 robust z-score":0.0782,"Call":"inactive"}
{"gene":"OR11A1 (olfactory receptor family 11 subfamily A member 1)","reagent":1,"G2 robust z-score":1.76,"Call":"inactive"}
{"gene":"OR11A1 (olfactory receptor family 11 subfamily A member 1)","reagent":2,"G2 robust z-score":2.55,"Call":"inactive"}
